In patent US20250179215A1, “PLASMIN-BINDING VHHS” (RHEINISCHE FRIEDRICH-WILHELMS-UNIVERSITÄT BONN, priority 2022, published 2025) one finds binding data, which are given here for two molecules.

Chains of the proteins cited; added tags and fusions are not shown. Residues count along the entry.
UniProt P00750, residues 36-562: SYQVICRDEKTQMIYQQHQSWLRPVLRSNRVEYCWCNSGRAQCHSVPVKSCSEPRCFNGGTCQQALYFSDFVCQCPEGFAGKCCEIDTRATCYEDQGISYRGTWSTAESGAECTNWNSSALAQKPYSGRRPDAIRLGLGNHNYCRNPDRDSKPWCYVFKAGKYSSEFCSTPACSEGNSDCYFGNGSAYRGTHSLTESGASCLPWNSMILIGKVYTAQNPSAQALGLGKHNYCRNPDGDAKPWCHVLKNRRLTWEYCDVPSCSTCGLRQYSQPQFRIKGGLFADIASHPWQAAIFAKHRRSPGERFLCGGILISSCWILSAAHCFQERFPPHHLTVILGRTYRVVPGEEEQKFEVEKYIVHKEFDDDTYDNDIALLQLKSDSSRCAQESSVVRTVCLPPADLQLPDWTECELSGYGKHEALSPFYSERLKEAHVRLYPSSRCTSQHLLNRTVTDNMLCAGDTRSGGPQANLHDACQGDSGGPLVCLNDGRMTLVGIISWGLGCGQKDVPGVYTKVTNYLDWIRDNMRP

Results are given in words; binding and its absence hold for the method and conditions named. Some results given as binding are weak or reduced against the parent protein; the word gives no strength. Sequences can lack the tags named with a protein.

For the assay, the target named is T1, tissue plasminogen activator (recombinant tPA, Actilyse) (UniProt P00750 36-562).
T1 construct: Actilyse is recombinant human tPA (alteplase)
The assay can be described thus: BLI.

B1: VHH A11 including C-terminal His6-tag (VHH)
VHH: QVQLVETGGGLVQAGGSLRLSCAASGNIFSINAMDWYRQAPGKERELVAAITSGGTTNYADSVKGRFTISRDNAKDTVYLQMNSLKPEDAAFYYCNADGYYSDYDKNLAEFNSWGQGTQVTVSS
notes: Alpaca-derived
As to B1, the binding entry is listed as “binds”.

B2: VHH C5 including C-terminal His6-tag (VHH)
VHH: QVQLVESGGGLVQAGGSLRLSCAASGRRFMVVAMGWYRQAPGNQRELVASITNGGTTNYAGSVKGRFTISGDSAKNTVYLHMNSLKPEDTAVYYCTTDVVFRDGNGQIQSNWGQGTQVTVSS
notes: Alpaca-derived
With B2, the binding entry is “binds”.
